Experimental data: PubChem BioAssay AID1671190 (National Center for Advancing Translational Sciences (NCATS), 2021)
Several values for one entry are separate records, joined by “and”; a condition that tells them apart may be missing. Equal values may be shown once. Screen size: about 580,000 compounds; about 6,100 (1.1%) were called active. This list was built around the results that the source calls inconclusive (neither active nor inactive); the mix of calls is not that of the screen. Calls follow the shape of the dose curve; as a rule, active = well fitted inhibition curve with a large enough effect; inconclusive = small, poorly fitted or top-dose-only effect, or another doubt; inactive = no such curve, though single readings can be large or run the other way. A potency beside an inconclusive call is a rough fit, not a confirmed value.

By UniProt entry, the sequences of proteins in these tests, tags left out. Where a name states a change or a piece, a line headed by the entry shows the natural chain unless it says otherwise.
UniProt P18054: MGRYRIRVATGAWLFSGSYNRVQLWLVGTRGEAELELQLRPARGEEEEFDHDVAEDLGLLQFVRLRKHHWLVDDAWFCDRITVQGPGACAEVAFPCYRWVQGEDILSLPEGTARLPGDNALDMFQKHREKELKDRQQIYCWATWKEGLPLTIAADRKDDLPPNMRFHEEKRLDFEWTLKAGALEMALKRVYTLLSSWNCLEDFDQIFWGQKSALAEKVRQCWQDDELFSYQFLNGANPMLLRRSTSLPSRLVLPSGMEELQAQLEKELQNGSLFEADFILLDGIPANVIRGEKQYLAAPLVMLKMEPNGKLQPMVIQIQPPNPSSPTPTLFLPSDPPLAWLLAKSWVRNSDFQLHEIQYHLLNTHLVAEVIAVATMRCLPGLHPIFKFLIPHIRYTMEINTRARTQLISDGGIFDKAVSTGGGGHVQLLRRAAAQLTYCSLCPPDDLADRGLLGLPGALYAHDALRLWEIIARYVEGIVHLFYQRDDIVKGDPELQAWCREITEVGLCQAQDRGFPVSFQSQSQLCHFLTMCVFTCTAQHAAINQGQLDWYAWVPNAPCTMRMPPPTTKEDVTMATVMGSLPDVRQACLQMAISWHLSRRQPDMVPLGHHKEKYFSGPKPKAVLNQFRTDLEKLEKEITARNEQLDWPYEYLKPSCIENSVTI

Target: Polyunsaturated fatty acid lipoxygenase ALOX12 (Homo sapiens) (UniProt P18054)
Assay: Primary qHTS assay for inhibitors of human arachidonate 12S-lipoxygenase (ALOX12): Round 2
Conditions: purified 12hLO, xylenol orange hydroperoxide absorbance; activity change, negative = inhibition: at 108 µM (top of the series) unless noted
Outline: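 Hydroperoxide product was detected by ferrous iron/xylenol orange as the 573 to 405 nm absorbance ratio. Arachidonic acid at 40 uM (final) was turned over for 30 min at room temperature by 150 nM human 12hLO, pH 7.0 Hepes buffer, after 15 min compound preincubation.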
% is scaled to controls: 0 for no effect and ±100 for the full control effect; potency is read from the fitted curve at half-maximal effect.

Compound	Potency	activity change, negative = inhibition
CCCn1c(=O)c2ccccc2n2c(SCC(=O)c3ccc(CC)cc3)nnc12	inconclusive: 141 µM [inhibitor, single point]	–
ON=C(c1ccccc1)c1ccc2c3c(cccc13)CC2	inactive	–
COc1cc(OC)c2c(-c3cccc(-c4ccoc4)c3)cc(=O)oc2c1	inconclusive: 5.62 µM [inhibitor, full curve, poor fit]	–
O=C(CN1C(=O)CSc2ccccc21)NOCc1ccccc1	inactive	–
COc1ccc(S(=O)(=O)CCC(=O)N2c3ccccc3CC2C)cc1 (stereo not drawn)	inconclusive: 141 µM [inhibitor, single point]	–
Nc1nc(N)nc(-c2cc(Cl)ccc2Cl)n1	inconclusive: 24.3 µM [inhibitor, single point] and inconclusive: 35.5 µM [inhibitor, single point]	–
COc1cc(OC)c(C2=NOC(C(=O)NCc3ccc4c(c3)OCO4)C2)cc1Cl (stereo not drawn)	inactive	–
N#Cc1cccc(NC(=O)c2nn(-c3ccccc3)c(=O)c3ccccc23)c1	inactive	–
Cc1ccc(S(=O)(=O)Oc2ccccc2/C=C2/SC(=O)NC2=O)cc1	inactive	–
O=C(Nc1ccccc1C(F)(F)F)c1c(Cl)cccc1Cl	inactive	–
COc1ccc(NC(=O)CN(C)C(=O)Cc2c[nH]c3ccccc23)cc1	inconclusive: 50.1 µM [inhibitor, single point]	–
Cc1ccc(C(=O)N2CCCC3(C2)Nc2cccnc2NC3=NC2CCCC2)cc1F (stereo not drawn)	inactive	–
Cc1ccc(NC(c2nnc(-c3ccccc3)o2)c2ccccc2F)c([N+](=O)[O-])c1 (stereo not drawn)	inactive	–
CCn1c(-c2ccc(C(C)(C)C)cc2)n[nH]c1=S	active: 15.8 µM	–
O=[N+]([O-])c1ccc(N2CCN(c3ccc(O)cc3)CC2)c(Cl)c1	inconclusive: 44.7 µM [inhibitor, partial curve, poor fit]	–
O=C(O)CCNC(=O)OCC1c2ccccc2-c2ccccc21	inconclusive: 28.2 µM [inhibitor, full curve, poor fit]	–
CCN(CC)c1nc(=S)nc(NC(C)(C)C)[nH]1	inconclusive: 6.31 µM [inhibitor, full curve, poor fit]	–
Nc1nc(NCc2ccc(Cl)cc2)nc(NCCO)c1[N+](=O)[O-]	inactive	–
COc1cccc(-c2[nH]nc3c2C(c2ccc(C)o2)C(C#N)=C(N)O3)c1 (stereo not drawn)	inconclusive: 44.7 µM [inhibitor, partial curve, poor fit]	–
O=C(NCC1(c2ccccc2)CCCC1)c1ccc(S(=O)(=O)N2CCCC2)cc1	inconclusive: 100 µM [inhibitor, partial curve, poor fit]	–
Cc1ccc(N2C(=O)N(Cc3ccc4c(c3)OCO4)c3ccccc3S2(=O)=O)c(C)c1	inconclusive: 8.91 µM [inhibitor, single point]	–
Cc1cnc(-c2ccccc2)n1C1CCCN(C(=O)C(C)C)C1 (stereo not drawn)	inactive	–
COc1ccc(-c2ncc[nH]2)cc1	–	inactive: 7.64% [at 12.5 µM]

Compound	Potency	activity change, negative = inhibition
CCn1c(SCC(=O)N2CCN(c3ccccc3)CC2)nnc1-c1ccoc1C	inconclusive: 56.2 µM [inhibitor, partial curve, poor fit]	–
COc1cc(/C=C2\C(=N)N3N=CSC3=NC2=O)cc(Br)c1OC(=O)c1ccco1	inconclusive: 56.2 µM [inhibitor, partial curve, poor fit]	–
O=C(O)CCn1cnc2onc(-c3ccccc3Cl)c2c1=O	inconclusive: 25.1 µM [inhibitor, full curve, poor fit]	–
CCn1nc(C(C)C)cc1C(=O)N1C[C@@H]2CCN(C)C[C@]2(C(=O)O)C1	inconclusive: 3.98 µM [inhibitor, full curve, poor fit]	–
Oc1c(C(c2ccc(Cl)cc2)N2CCCC2)cc(Cl)c2cccnc12 (stereo not drawn)	inconclusive: 39.8 µM [inhibitor, partial curve]	–
CCCOc1ccc(F)cc1-c1cc(C(=O)Nc2cc(OC)c(OC)c(OC)c2)[nH]n1	inactive	–
CC1C/C(=N/Nc2nc3ccccc3[nH]2)CC(C)(C)C1 (stereo not drawn)	inconclusive: 79.4 µM [inhibitor, partial curve, poor fit]	–
O=C(Nc1c(C(=O)Nc2cccc(C(F)(F)F)c2)oc2ccccc12)c1cc(=O)c2ccccc2o1	inactive	–
Cc1ccc(C(=O)CC(Nc2ccc(Cl)cc2)c2ccccc2)cc1 (stereo not drawn)	inconclusive: 44.7 µM [inhibitor, partial curve, poor fit]	–
COC(=O)C1C(=O)c2c([nH]c(C(=O)OCCOC(C)C)c2C)CC1C (stereo not drawn)	inconclusive: 8.91 µM [inhibitor, partial curve, poor fit]	–
CCOC(=O)C1CCN(S(=O)(=O)c2ccc3c4c2CC(=O)N4CC(C)S3)CC1 (stereo not drawn)	inconclusive: 7.08 µM [inhibitor, full curve, poor fit]	–
Cc1ccc(C(=O)N/C(=C\c2ccco2)C(=O)NCCCn2ccnc2)cc1C	inactive	–
CCOC(=O)N1CCN(c2cc(C(=O)O)c3cc(NC(=O)C4CC4)ccc3n2)CC1	inconclusive: 14.1 µM [inhibitor, full curve, poor fit]	–
Cc1ccc(NC(=S)NC(=O)c2ccc(-c3ccccc3)cc2)cc1	inconclusive: 31.6 µM [inhibitor, partial curve, poor fit]	–
CC1CCCN(S(=O)(=O)c2ccc(NC(=O)CN3CCN(C)CC3)cc2)C1 (stereo not drawn)	inconclusive: 50.1 µM [inhibitor, partial curve, poor fit]	–
Cc1ccc(NC2c3ncccc3C(=O)N2Cc2cccs2)cc1C (stereo not drawn)	inconclusive: 50.1 µM [inhibitor, partial curve, poor fit]	–
COc1ccc2oc(C)c(C(=O)c3ccc(C)cc3)c2c1	inactive	–
O=c1[nH]c(-c2ccc(C(F)(F)F)cc2)nc2c1CSCC2	inconclusive: 19.3 µM [inhibitor, partial curve, poor fit]	–
COc1cccc(OC(=O)c2ccccc2)c1OC(=O)c1ccccc1	inconclusive: 3.55 µM [inhibitor, full curve, poor fit]	–
ClCc1csc(-c2ccc(Cl)cc2)n1	inconclusive: 25.1 µM [inhibitor, full curve, poor fit]	–
CCn1c(=O)c2cc(C(=O)NCCCN(C)Cc3ccccc3)sc2c2ccccc21	inconclusive: 89.1 µM [inhibitor, partial curve, poor fit]	–
Cc1sc(N)nc1-c1ccc2c(c1)OCCO2	inconclusive: 25.1 µM [inhibitor, single point]	–
CCOc1ccccc1OCC(=O)NCc1ccco1	inconclusive: 50.1 µM [inhibitor, partial curve, poor fit]	–

Compound	Potency	activity change, negative = inhibition
CC(Oc1ccccc1)C(=O)Nc1cccc([N+](=O)[O-])c1 (stereo not drawn)	inconclusive: 44.7 µM [inhibitor, partial curve, poor fit]	–
COc1ccccc1NC(=O)N1c2ccccc2NC(=O)CC1C (stereo not drawn)	inconclusive: 112 µM [inhibitor, single point]	–
c1cn2c(Nc3ccc4c(c3)OCCO4)c(-c3ccc(N4CCOCC4)cc3)nc2cn1	inactive	–
N#C/C(=N\Nc1ccccc1)C(=N)N1CCCCC1	inconclusive: 28.2 µM [inhibitor, partial curve, poor fit]	–
O=C(CCCCCCN1C(=O)c2ccccc2C1=O)Nc1nccs1	inconclusive: 7.08 µM [inhibitor, partial curve, poor fit]	–
O=C(CN1CCCCCCC1)N/N=C/c1ccc(F)c(F)c1	inconclusive: 12.6 µM [inhibitor, full curve]	–
O=C(O)C12CC3CCC(CC(C3)C1)C2	–	inconclusive: -35% [inhibitor]
O=C(C1CCN(S(=O)(=O)c2cccs2)CC1)N1CCCCC1	inactive	–
Cn1c(=O)c2c(-c3ccccc3)n3c(c2n(C)c1=O)C(c1cccc(Cl)c1)OCC3(C)C (stereo not drawn)	inconclusive: 35.5 µM [inhibitor, partial curve, poor fit]	–
CC(C)=NNC(=O)CCC(=O)NN=C(C)C	inactive	–
C=C(C)[C@@H]1CCC2(C(=O)O)CC[C@]3(C)[C@H](CC[C@@H]4[C@@]5(C)CCC(=O)C(C)(C)[C@@H]5CC[C@]43C)[C@@H]12 (stereo partly drawn)	inactive	–
Cc1ccc(S(=O)(=O)/N=C(\N)c2ccc(Cl)cc2)cc1	inconclusive: 39.8 µM [inhibitor, single point]	–
COc1ccc(C(C)=O)cc1CSc1c(C)c(C)cc(C)c1C	inconclusive: 39.8 µM [inhibitor, full curve, poor fit]	–
CCOCCCNCc1c(F)cccc1Cl	inactive	–
COc1ccc(C(=O)N2C[C@@H]3OCC(=O)N(CC4CC4)[C@@H]3C2)cc1	inactive	–
C=C(C)C(=O)Oc1ccc(N2C(=O)CCC2=O)cc1	inactive	–
CC(=O)Nc1ccc(Nc2ccc(N3C(=O)CCCC3=O)cc2[N+](=O)[O-])cc1	inconclusive: 12.6 µM [inhibitor, full curve, poor fit]	–
COc1ccc(NC2CC(=O)N(c3cccc([N+](=O)[O-])c3)C2=O)cc1 (stereo not drawn)	inconclusive: 44.7 µM [inhibitor, partial curve, poor fit]	–
CSCCCNC(=S)NNC(N)=O	inconclusive: 70.8 µM [inhibitor, single point]	–
Oc1ccc(C=NNC(=S)Nc2ccccc2)nc1	inconclusive: 44.7 µM [inhibitor, partial curve, poor fit]	–
Cc1ccc2nc(/C(C#N)=C\c3ccc([N+](=O)[O-])o3)[nH]c2c1	inactive	–
Cc1ccc(S(=O)(=O)C2C(=O)NC3(C)CC2c2ccccc2O3)cc1 (stereo not drawn)	inconclusive: 141 µM [inhibitor, partial curve, poor fit]	–

Arranged by molecular weight (smallest number first): three of the compounds above
Compound	Potency	activity change, negative = inhibition
Cc1cnc(-c2ccccc2)n1C1CCCN(C(=O)C(C)C)C1 (stereo not drawn)	inactive	–
COc1ccc(C(C)=O)cc1CSc1c(C)c(C)cc(C)c1C	inconclusive: 39.8 µM [inhibitor, full curve, poor fit]	–
COc1ccc(S(=O)(=O)CCC(=O)N2c3ccccc3CC2C)cc1 (stereo not drawn)	inconclusive: 141 µM [inhibitor, single point]	–

Compounds above containing a tert-butyl group:
Compound	Potency	activity change, negative = inhibition
CCn1c(-c2ccc(C(C)(C)C)cc2)n[nH]c1=S	active: 15.8 µM	–
CCN(CC)c1nc(=S)nc(NC(C)(C)C)[nH]1	inconclusive: 6.31 µM [inhibitor, full curve, poor fit]	–
